Experimental data taken from PubChem BioAssay AID328 (DTP/NCI, 2004).
The list does not hold the whole screen: it is rich in T/C values a quarter to a half above the control, in often repeated tests (any T/C) and in doses without a T/C. Further doses and runs are listed elsewhere. T/C: endpoint of the treated group in % of that of the vehicle group. Some entries give survivors of the animals treated and no T/C: the source holds a T/C of zero for them, seemingly a mark for toxic or unscored doses. Some survivor counts are full or nearly so, which does not show that the dose was tolerated: the source hardly ever lists a survival T/C far under the control, and the zero likely stands for such cases as well. Counts of survivors are from the toxicity check (mostly the fifth day) where no day follows; animals may have died later. Schedule codes are those of the source, read here as Q, the interval in days (D) or hours (H), X, the number of doses. Some entries hold several experiments; the results are listed from low to high. For survival time, the PubChem record calls one and a half times the control and up active, and a quarter to a half above the control has no call in these data; cut-offs in other NCI protocols can differ. Some T/C values carry the count of animals alive at the toxicity check (mostly the fifth day); without a count, all were alive then.

System: BDF1 mice, P388 leukemia ip, median survival T/C
Experiment: NCI In Vivo Anticancer Drug Screen. Data for tumor model P388 Leukemia (intraperitoneal) in B6D2F1 (BDF1) mice
Conditions: higher T/C = longer survival
Procedure, shortened: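 Antitumour effect was judged in vivo: survival in drug-treated mice, normalised to that of vehicle-dosed controls, gives the reported T/C.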

[1] = T/C endpoint: median survival time, dose: 1.0 mg/kg/injection, schedule: Q04DX003 (ip), vehicle: saline
[2] = T/C endpoint: median survival time, dose: 2.0 mg/kg/injection, schedule: Q04DX003 (ip), vehicle: saline
[3] = T/C endpoint: median survival time, dose: 100.0 mg/kg/injection, schedule: Q01DX009 (ip), vehicle: saline with Tween-80
[4] = T/C endpoint: median survival time, dose: 200.0 mg/kg/injection, schedule: Q01DX009 (ip), vehicle: saline with Tween-80
[5] = T/C endpoint: median survival time, dose: 12.5 mg/kg/injection, schedule: Q01DX009 (ip), vehicle: saline with Tween-80
[6] = T/C endpoint: median survival time, dose: 25.0 mg/kg/injection, schedule: Q01DX009 (ip), vehicle: saline with Tween-80
[7] = T/C endpoint: median survival time, dose: 200.0 mg/kg/injection, schedule: Q01DX009 (ip), vehicle: saline
[8] = T/C endpoint: median survival time, dose: 50.0 mg/kg/injection, schedule: Q01DX009 (ip), vehicle: saline with Tween-80

Structure (SMILES): CC1CC(C)(O)CC(C(O)CC2CC(=O)NC(=O)C2)C1=O (stereo not drawn)
- T/C (T/C endpoint: median survival time, dose: 0.1 mg/kg/injection, schedule: Q01DX010 (ip), vehicle: saline): 136 % of control
- T/C (T/C endpoint: median survival time, dose: 0.2 mg/kg/injection, schedule: Q01DX010 (ip), vehicle: saline): 140 % of control
- T/C (T/C endpoint: median survival time, dose: 0.72 mg/kg/injection, schedule: Q04DX003 (ip), vehicle: saline): 138 % of control
- T/C (T/C endpoint: median survival time, dose: 0.78 mg/kg/injection, schedule: Q04DX003 (ip), vehicle: saline): 140 % of control
- T/C [1]: 148 % of control [7 of 8 alive]
- T/C (T/C endpoint: median survival time, dose: 1.3 mg/kg/injection, schedule: Q04DX003 (ip), vehicle: saline): 143 % of control
- T/C [2]: 148 % of control
- T/C (T/C endpoint: median survival time, dose: 2.16 mg/kg/injection, schedule: Q04DX003 (ip), vehicle: saline): 144 % of control
- survivor count (T/C endpoint: median survival time, dose: 4.0 mg/kg/injection, schedule: Q04DX003 (ip), vehicle: saline): 4 of 8
- survivor count (T/C endpoint: median survival time, dose: 8.0 mg/kg/injection, schedule: Q04DX003 (ip), vehicle: saline): 3 of 8
- survivor count (T/C endpoint: median survival time, dose: 10.0 mg/kg/injection, schedule: Q01DX001 (ip), vehicle: saline): 4 of 8
- T/C (T/C endpoint: median survival time, dose: 173.0 micrograms/kg/injection, schedule: Q01DX009 (ip), vehicle: saline): 142 [7 of 8 alive] and 147 % of control
- survivor count (T/C endpoint: median survival time, dose: 480.0 micrograms/kg/injection, schedule: Q01DX009 (ip), vehicle: saline): 6 of 8
- survivor count (T/C endpoint: median survival time, dose: 800.0 micrograms/kg/injection, schedule: Q01DX009 (ip), vehicle: saline): 7 of 8
- T/C (T/C endpoint: median survival time, dose: 1300.0 micrograms/kg/injection, schedule: Q04DX003 (ip), vehicle: saline): 136 % of control
- T/C (T/C endpoint: median survival time, dose: 1300.0 micrograms/kg/injection, schedule: Q04DX003 (sc), vehicle: saline): 127 % of control
- survivor count (T/C endpoint: median survival time, dose: 2160.0 micrograms/kg/injection, schedule: Q04DX003 (ip), vehicle: saline): 3 of 8
- T/C (T/C endpoint: median survival time, dose: 2160.0 micrograms/kg/injection, schedule: Q04DX003 (sc), vehicle: saline): 133 % of control
- survivor count (T/C endpoint: median survival time, dose: 3600.0 micrograms/kg/injection, schedule: Q04DX003 (sc), vehicle: saline): 8 of 8

Structure (SMILES): Cc1nn(CCO)c(-c2ccccc2)c1-n1on1-c1c(C)nn(CCO)c1-c1ccccc1
- survivor count [3]: 6 of 6
- survivor count [4]: 5 of 6

Structure (SMILES): Cc1noc(-c2ccc([N+](=O)[O-])o2)n1
- survivor count (T/C endpoint: median survival time, dose: 300.0 mg/kg/injection, schedule: Q01DX009 (ip), vehicle: Klucel (hydroxypropylcellulose) (HPC)): 3 of 6

Structure (SMILES): O=C1CC/C(=N\O)N1
- survivor count (T/C endpoint: median survival time, dose: 300.0 mg/kg/injection, schedule: Q01DX009 (ip), vehicle: saline): 7 of 7

Structure (SMILES): COC(C(=O)C(O)C(C)O)C1Cc2cc3cc(OC4CC(OC5CC(O)C(O)C(C)O5)C(O)C(C)O4)c(C)c(O)c3c(O)c2C(=O)C1OC1CC(OC2CC(O)C(OC3CC(C)(O)C(O)C(C)O3)C(C)O2)C(O)C(C)O1 (stereo not drawn)
- T/C (T/C endpoint: median survival time, dose: 0.13 mg/kg/injection, schedule: Q01DX009 (ip), vehicle: saline): 129 and 130 % of control
- T/C (T/C endpoint: median survival time, dose: 0.25 mg/kg/injection, schedule: Q01DX009 (ip), vehicle: saline): 134 % of control
- T/C (T/C endpoint: median survival time, dose: 0.5 mg/kg/injection, schedule: Q01DX009 (ip), vehicle: saline): 136 % of control
- T/C (T/C endpoint: median survival time, dose: 1.0 mg/kg/injection, schedule: Q01DX009 (ip), vehicle: saline): 127 % of control [2 of 3 alive]
- T/C [1]: 142 % of control
- survivor count (T/C endpoint: median survival time, dose: 2.0 mg/kg/injection, schedule: Q01DX009 (ip), vehicle: saline): 3 of 3
- T/C [2]: 125 % of control [7 of 10 alive]

Structure (SMILES): O=C(/C=C/c1cccnc1)/C=C/c1cccnc1
- T/C (T/C endpoint: median survival time, dose: 6.25 mg/kg/injection, schedule: Q01DX009 (ip), vehicle: Klucel (hydroxypropylcellulose) (HPC)): 130 % of control
- T/C (T/C endpoint: median survival time, dose: 12.5 mg/kg/injection, schedule: Q01DX009 (ip), vehicle: Klucel (hydroxypropylcellulose) (HPC)): 125 % of control
- T/C (T/C endpoint: median survival time, dose: 25.0 mg/kg/injection, schedule: Q01DX009 (ip), vehicle: Klucel (hydroxypropylcellulose) (HPC)): 130 % of control [4 of 6 alive]

Structure (SMILES): CC1(C)C(=O)C(O)=C[C@H]2C1=CC[C@@H]1[C@]2(C)C(=O)C[C@]2(C)[C@@H]([C@@](C)(O)C(=O)CC(O)C(C)(C)O)C(O)C[C@@]12C (stereo partly drawn)
- survivor count (T/C endpoint: mean survival time, dose: 4.5 mg/kg/injection, schedule: Q01DX010 (ip), vehicle: carboxymethylcellulose (CMC)): 6 of 6
- T/C (T/C endpoint: mean survival time, dose: 9.0 mg/kg/injection, schedule: Q01DX010 (ip), vehicle: carboxymethylcellulose (CMC)): 126 % of control

Structure (SMILES): CN(C)c1cc2nc[nH]c(=O)c2cc1[N+](=O)[O-]
- survivor count (T/C endpoint: median survival time, dose: 200.0 mg/kg/injection, schedule: Q04DX003 (ip), vehicle: Klucel (hydroxypropylcellulose) (HPC)): 0 of 6
- survivor count (T/C endpoint: median survival time, dose: 400.0 mg/kg/injection, schedule: Q04DX003 (ip), vehicle: Klucel (hydroxypropylcellulose) (HPC)): 0 of 6

Structure (SMILES): CC(=O)OC(C)C1C2=C(C(=O)CC1(C)O)C(=O)c1c(ccc(-c3ccc4c(c3O)C(=O)C3=C(C4=O)C(C(C)OC(C)=O)C(C)(O)CC3=O)c1O)C2=O (stereo not drawn)
- T/C [5]: 128 % of control [5 of 6 alive]
- survivor count [6]: 3 of 6

Structure (SMILES): S=C(S)NCCNC(=S)S
- T/C (T/C endpoint: median survival time, dose: 75.0 mg/kg/injection, schedule: Q01DX009 (ip), vehicle: saline): 125 % of control
- T/C (T/C endpoint: median survival time, dose: 132.0 mg/kg/injection, schedule: Q01DX009 (ip), vehicle: saline): 141 % of control
- T/C (T/C endpoint: median survival time, dose: 135.0 mg/kg/injection, schedule: Q04DX003 (ip), vehicle: saline): 145 % of control
- T/C [7]: 125 % of control
- survivor count [7]: 6 of 6
- T/C (T/C endpoint: median survival time, dose: 200.0 mg/kg/injection, schedule: Q04DX003 (ip), vehicle: saline): 100, 109, 127, 145 % of control
- survivor count (T/C endpoint: median survival time, dose: 265.0 mg/kg/injection, schedule: Q01DX009 (ip), vehicle: saline): 5 of 6
- T/C (T/C endpoint: median survival time, dose: 400.0 mg/kg/injection, schedule: Q01DX009 (ip), vehicle: saline): 130 % of control

Structure (SMILES): c1ccc(-c2c[se]nn2)cc1
- survivor count [5]: 5 of 6
- survivor count [6]: 4 of 6
- survivor count [8]: 4 of 6
- survivor count [3]: 0 of 6
- survivor count [4]: 0 of 6

Structure (SMILES): O=C(O)CC[S-].[Ag+]
- survivor count [4]: 6 of 6
- survivor count (T/C endpoint: median survival time, dose: 400.0 mg/kg/injection, schedule: Q01DX009 (ip), vehicle: saline with Tween-80): 6 of 6

Structure (SMILES): NC(CCl)=NC1CCCCC1
- T/C (T/C endpoint: median survival time, dose: 33.0 mg/kg/injection, schedule: Q04DX003 (ip), vehicle: saline): 130 % of control
- T/C (T/C endpoint: median survival time, dose: 50.0 mg/kg/injection, schedule: Q04DX003 (ip), vehicle: saline): 127 and 130 % of control

Structure (SMILES): O=c1cc[nH]c2cc(C(F)(F)F)ccc12
- survivor count (T/C endpoint: median survival time, dose: 400.0 mg/kg/injection, schedule: Q04DX003 (ip), vehicle: saline sonified): 2 of 6

Structure (SMILES): CC12CCC(Cl)CC1=CCC1C2CCC2(C)C1CCCN2CCCl (stereo not drawn)
- survivor count (T/C endpoint: median survival time, dose: 50.0 mg/kg/injection, schedule: Q01DX001 (ip), vehicle: saline with Tween-80): 1 of 6
- survivor count (T/C endpoint: median survival time, dose: 50.0 mg/kg/injection, schedule: Q01DX001 (ip), vehicle: saline): 2 of 6
- survivor count (T/C endpoint: median survival time, dose: 100.0 mg/kg/injection, schedule: Q01DX001 (ip), vehicle: saline): 0 of 6

Structure (SMILES): CC(N)C(=O)O (stereo not drawn)
- survivor count (T/C endpoint: median survival time, dose: 400.0 mg/kg/injection, schedule: Q04DX003 (ip), vehicle: saline): 6 of 6

Structure (SMILES): O=C1C=C/C(=N/S(=O)(=O)c2ccccc2)c2ccccc21
- survivor count (T/C endpoint: median survival time, dose: 1.5 mg/kg/injection, schedule: Q01DX009 (ip), vehicle: DMSO): 6 of 6
- survivor count (T/C endpoint: median survival time, dose: 3.0 mg/kg/injection, schedule: Q01DX009 (ip), vehicle: DMSO): 6 of 6
- survivor count (T/C endpoint: median survival time, dose: 6.0 mg/kg/injection, schedule: Q01DX009 (ip), vehicle: DMSO): 5 of 6 and 5 of 5
- survivor count (T/C endpoint: median survival time, dose: 25.0 mg/kg/injection, schedule: Q01DX009 (ip), vehicle: DMSO): 6 of 6

Structure (SMILES): Cc1cc2nc(Oc3ccccc3)nc(=O)n2c(C)n1
- survivor count [8]: 1 of 6
- survivor count [3]: 5 of 6
- survivor count [4]: 0 of 6
